Measured values published in patent publication US20240415889A1.
These are yes or no findings as the source states them, for the method shown. Some entries that bind do so weakly or less than the wild type.

Amino acid sequences for entries named in this document (tags omitted). A change or cut given only in a name is not applied to a line headed by its entry.
UniProt Q13241: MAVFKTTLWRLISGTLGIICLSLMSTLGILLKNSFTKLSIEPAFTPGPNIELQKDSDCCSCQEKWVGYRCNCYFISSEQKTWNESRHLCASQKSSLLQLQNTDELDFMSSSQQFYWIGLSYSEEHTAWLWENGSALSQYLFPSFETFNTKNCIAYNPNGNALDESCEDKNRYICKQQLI

Key:
[1] = target: CD94/NKG2A on the surface of primary human NK cells (human) (UniProt Q13241); assay: flow cytometry on primary NK cells
[2] = target: single chain CD94/NKG2A-Fc (CD94/NKG2A-IgG1 fusion polypeptide) (human); assay: recombinant CD94/NKG2A binding assays
[3] = target: CD94/NKG2A on the surface of primary human NK cells (human) (UniProt Q13241); assay: flow cytometry on primary NK cells, 100 nM
[4] = target: CD94/NKG2A on the surface of primary human NK cells (human) (UniProt Q13241); assay: flow cytometry on primary NK cells, 10 nM antibody

Measured: binding

B1: IgG Clone #2 (1B2-6, IgG1-LALA-PG) (antibody, V domains shown)
VH: EVQLVESGGGLVKPGGSLRLSCAASGFTFSGYYMSWIRQAPGKGLEWLAYISNSGRTIYYADSVKGRFTISRDNSNSSLYLQMNSLRAEDTAVYYCARGFYMDAWGKGTTVTVSS
VL: DIQMTQSPSSLSASVGDRVTITCRASQSISSYLNWYQQKPGKAPKLLIYAASSLQSGVPSRFSGSGSGTDFTLTISSLQPEDFGVYYCQYYGISPPFTFGPGTKVDIKR
binds: [1] | [2] | [3] | [4]
